From article PMC7954794, “Protein context shapes the specificity of SH3 domain-mediated interactions in vivo” (Nature Communications, 2021)
Some results come without the dose or concentration used.

Tests used:
Format in all cases: cell-based, Saccharomyces cerevisiae
Design in all cases: key: 0: SH3-independent; 1: SH3-dependent PPIs; 2: SH3-inhibited PPIs
BBC1 = test: DHFR-PCA on solid medium, bait BBC1 (Fig. 1B); settings: bait BBC1, label = prey
Source text: (§1) Supplement 41467_2021_21873_MOESM8_ESM.xlsx, sheet "Fig1B" | column: medsize; medrep; Ratio; Score

BUD14 = test: DHFR-PCA on solid medium, bait BUD14 (Fig. 1B); settings: bait BUD14, label = prey
Source text: as §1

BOI2 = test: DHFR-PCA on solid medium, bait BOI2 (Fig. 1B); settings: bait BOI2, label = prey
Source text: as §1

BOI1 = test: DHFR-PCA on solid medium, bait BOI1 (Fig. 1B); settings: bait BOI1, label = prey
Source text: as §1

| Substance | Score (BBC1) | Score (BUD14) | Score (BOI2) | Score (BOI1) |
| --- | --- | --- | --- | --- |
| YFR024C-A (PKAVALYSFAGEESGDLPFRKGDVITILKKSDSQNDWWTGRVNGREGIFPANYVELV) | 1 |  |  |  |
| YER155C |  | 1 | 1 | 1 |
| YIL062C | 0 |  |  |  |
| YOR181W | 1 |  |  |  |
| YLR370C | 0 |  |  |  |
| YMR109W (PMFEAAYDFPGSGSPSELPLKKGDVIYITREEPSGWSLGKLLDGSKEGWVPTAYMKPHS) | 0 |  | 1 |  |
| YDL229W | 0 | 0 | 0 | 2 |
| YBR234C | 0 | 1 | 0 |  |
| YCR088W (PWATAEYDYDAAEDNELTFVENDKIINIEFVDDDWWLGELEKDGSKGLFPSNYVSLGN) | 0 |  | 0 |  |
| YDR388W (ETVTALYDYQAQAAGDLSFPAGAVIEIVQRTPDVNEWWTGRYNGQQGVFPGNYVQLNK) | 1 |  |  |  |
| YAL005C | 0 | 0 | 0 | 2 |
| YNL138W | 1 |  |  |  |
| YGL206C | 1 |  |  | 1 |
